Consider 1 molecule from patent publication US20070004628A1 (SALK INSTITUTE FOR BIOLOGICAL STUDIES, published 2007).

Results are given in words; binding and its absence hold for the method and conditions named. For some of these results: Binding seen in cells or lysates may run through a third protein. For some of these results: Binding can be weak; no strength is given.

The target of assay [1] is Flag-tagged, truncated p75 lacking the p75 ECD (Flag-p75-TM-ICD). In words: co-immunoprecipitation with anti-Flag antibody from co-transfected HEK293 lysates, Western blot. (In western blotting, separated proteins are transferred to a membrane and probed.)
Assay [2] addresses c-Myc-tagged, full-length p75 fusion protein. In words: co-immunoprecipitation from co-transfected HEK293 lysates, Western blot.
For assay [3] the target is unchanged. In words: co-immunoprecipitation with anti-c-myc antibodies from co-transfected HEK293 lysates, Western blot.
Assay [4] deals with Troy. Nature of the assay: immunoprecipitation.

B1: full-length p45 (p45-FL) (receptor)
chain: MLYNVSKGVVYSDTALQGQDGDREGMWVGAGGALAPNTSSLFPPEPPGASSNIIPVYCALLATVILGLLAYVAFKCWRSHKQRQQLAKARTVELGDPDRDQRRGDSNVFVDSPPSLEPCIPSQGPHPDLGCQLYLHIPQQQQEEVQRLLMMGEPAKGWQELAGHLGYQAEAVETMACDQMPAYTLLRNWAAQEGNRATLRVLEDALAAIGREDVVQVLSSPAESSSVV
notes: Untagged full-length p45 expressed in HEK293 cells or from transfected capped RNA in CGNs; Also used here for endogenous p45 of P7 mouse cerebellum; also called PLAIDD; NRADD
For the molecule B1, the binding entry in assay [1] is on record as “binds”; in assay [2], “binds”; in assay [3] it was “binds”; in assay [4] it was “no binding”.
